## Primary screen of a compound library

The chains behind the UniProt entries cited, without tags or fusion partners.
UniProt E9BF75, entry or part of it: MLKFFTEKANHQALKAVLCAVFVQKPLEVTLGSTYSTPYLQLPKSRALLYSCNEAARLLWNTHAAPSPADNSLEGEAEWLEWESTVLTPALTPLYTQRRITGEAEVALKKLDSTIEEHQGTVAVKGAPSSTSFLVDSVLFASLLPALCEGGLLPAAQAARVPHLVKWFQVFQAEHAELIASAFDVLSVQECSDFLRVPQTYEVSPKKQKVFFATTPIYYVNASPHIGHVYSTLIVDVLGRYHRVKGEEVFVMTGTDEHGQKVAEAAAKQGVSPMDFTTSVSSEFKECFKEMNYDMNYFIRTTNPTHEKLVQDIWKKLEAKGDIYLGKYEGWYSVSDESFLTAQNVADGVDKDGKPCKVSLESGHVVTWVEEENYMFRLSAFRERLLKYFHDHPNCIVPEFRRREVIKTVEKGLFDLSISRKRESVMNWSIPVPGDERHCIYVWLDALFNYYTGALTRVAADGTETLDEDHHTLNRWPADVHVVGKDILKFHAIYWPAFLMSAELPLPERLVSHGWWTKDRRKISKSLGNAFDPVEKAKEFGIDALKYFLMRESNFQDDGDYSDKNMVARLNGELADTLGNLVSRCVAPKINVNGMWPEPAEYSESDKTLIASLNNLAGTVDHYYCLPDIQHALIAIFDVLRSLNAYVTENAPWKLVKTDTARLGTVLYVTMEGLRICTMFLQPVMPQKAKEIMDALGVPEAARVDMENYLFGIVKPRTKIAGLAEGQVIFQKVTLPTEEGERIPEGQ

From ChEMBL document CHEMBL3988442, “University of Dundee, Small-Polar-MMV Screening Library” (2021).

Mtb heat-shock: 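Assay on Mycobacterium tuberculosis, filed only as a heat shock assay from Cornell; the read-out is not stated. The concentration is filed as 10 mM, unlikely as a test dose, so the dose is not known. The record gives no direction; compounds that gave an IC50 in retests scored well above the rest, so higher reads as stronger inhibition. About 69,000 compounds were tested under these conditions; 1.4% (about 930) showed 50% or more at least once.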
LdMetRS: 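Methionyl-tRNA synthetase (putative), Leishmania donovani (UniProt E9BF75). Primary screen of methionyl-tRNA synthetase; the read-out is not stated. The test concentration is not given. Values are per cent inhibition. About 68,000 compounds were tested under these conditions; 0.035% (about 24) showed 50% or more at least once.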
Mtb growth Cornell: 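Whole-cell assay for inhibitors of Mycobacterium tuberculosis growth, labelled Cornell in the record; the read-out is not stated. The concentration is filed as 10 mM, unlikely as a test dose, so the dose is not known. The record gives no direction; compounds strong in two other growth screens of this library score well above the rest, so higher reads as stronger inhibition. About 53,000 compounds were tested under these conditions; 1.7% (about 900) showed 50% or more at least once.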

Results are percentages, as filed. The controls that fix the scale are not given in the record; negative values are as filed. This is an unselected part of the compounds tested. A dash means the value is not listed here; it may have been measured.

Compound | Mtb heat-shock | LdMetRS | Mtb growth Cornell
CN(C)c1ncc(CNS(=O)(=O)c2cccc3ccccc23)n1C | -4.744% | 12.64% | 1.656%
O=C(Cn1cc(Cl)cn1)N1CCCC(c2cc3ccccc3cn2)C1 (centres undefined) | -5.254% | 3.226% | -10.77%
COc1ccc(CNC(=O)Nc2cccnc2N2CCCC2)cc1O | 0.7568% | 11.76% | 47.78%
Cn1cccc(NC(=O)COc2ccc(Br)cc2)c1=O | -7.044% | 12.04% | 11%
O=C(O)C(F)(F)F.[H][C@@]12COC[C@]1(COc1ncccc1F)CN(C(=O)C1=CCCC1)C2 | 14.91% | - | -3.271%
CCCN1CCCn2nc(CNC(=O)CC3CCS(=O)(=O)C3)cc2C1 (centres undefined) | -3.209% | 10.8% | 5.781%
Cc1cc(=O)[nH]c(NCCNC(=O)CN2CCCCCC2)n1 | -13.39% | 1.95% | -87.64%
Cn1c(Cn2cccn2)nnc1C1CCCN(c2ccncc2F)C1 (centres undefined) | -23.88% | 9.63% | 8.668%
CCc1ccc(C2COCCN2C(=O)Nc2ccc(C#N)cc2)o1 (centres undefined) | 9.996% | 1.394% | 6.795%
O=C(c1ccc(SC(F)F)cc1)N1CCOCC1c1ncon1 (centres undefined) | 4.739% | 6.407% | -
CN1CCC(N(Cc2ccccc2F)C(=O)NCc2ccncc2)CC1 | -29.15% | 5.017% | -11.13%
CCOc1ccc(C(=O)CCC(=O)N(C)Cc2noc(C)n2)cc1C | -38.06% | 11.2% | 16.95%
O=C(O)C(F)(F)F.[H][C@@]12CCN(c3nnc(C)s3)C[C@]1([H])O[C@@H](C(=O)NC)C2 | 0.7881% | - | -42.74%
Nc1cccnc1N1CCC(C(F)(F)F)CC1 | -5.383% | 2.695% | -22.17%
CCC(CO)N(Cc1ccco1)C(=O)c1ccccc1NC (centres undefined) | -8.094% | 13.33% | -
CC(=O)N1CCC1c1cc(N2CC(O)C2)nc(C)n1 (centres undefined) | 20.13% | 10.87% | 6.898%
CCN(Cc1ccoc1)C(=O)C1CCN(C(=O)OC(C)(C)C)C1 (centres undefined) | -14.16% | 7.614% | -
COCCN1C[C@@H](C)[C@@]2(COCCN(C(=O)c3ccncc3)C2)C1 | - | 8.143% | -
Cc1csc(N2CCCN(C(=O)Cc3cccs3)CC2)n1 | -7.81% | 15.64% | -
COc1c(C2CCCN2Cc2c(C)noc2C)c(C)nn1C (centres undefined) | 0.9204% | 9.091% | -
O=C(O)C(F)(F)F.O=C(O)C(F)(F)F.[H][C@@]12CCN(C(=O)C3CC3)C[C@]1([H])[C@@H](CN(C)Cc1cccnc1)OC2 | 6.451% | - | 1.349%
CCn1c(C)nnc1CN(C)C1CCN(CCn2cccn2)C1 (centres undefined) | 9.077% | 9.722% | -
O=C(O)C(F)(F)F.[H][C@@]12CN(CCC(C)C)C[C@]1([H])OCCN2c1ncc(F)cn1 | -11.53% | - | -
COCCN1CCC12CCN(C(=O)Cc1cccs1)C2 (centres undefined) | - | 14.79% | -
Cc1cc(NC(=O)CSc2nc(=O)ccn2C(C)C)no1 | 4.912% | 6.25% | 7.534%
Cc1cc(C)c2ncn(CCOCCO)c(=O)c2c1 | 9.764% | 19.37% | 0.411%
O=C1CC(c2cccs2)Cc2[nH]c(=O)ccc21 (centres undefined) | 17.7% | 6.494% | 3.818%
O=C(O)C(F)(F)F.O=C(O)C(F)(F)F.[H][C@]12CCC[C@@]1(COc1ccccn1)CN(S(=O)(=O)c1cccnc1)C2 | -13.75% | - | -3.199%
COCCOC[C@]1(CNC(=O)c2ccc(OC)cc2)C[C@@H](O)[C@@H](O)C1 | 8.153% | 14.84% | -
O=S(=O)(C1CC1)N1CCC2(COCc3cnc(NCC4CC4)nc32)C1 (centres undefined) | -36.34% | 16.88% | -6.951%
O=C(c1coc(COc2ccccc2F)n1)N1CCCO1 | 9.838% | 16.51% | 7.327%
C=C(C)CN1CCC(NC(=O)Nc2ccc(F)c(C(N)=O)c2)CC1 | 3.981% | 14.78% | -
CC(C)c1nnc(NC(=O)NC2CCN(Cc3ccccc3)C2)s1 (centres undefined) | -7.466% | 11.72% | -
CCN1CC(CN(C)Cc2nc(-c3cccc(Cl)c3)oc2C)CC1=O (centres undefined) | -3.653% | 19% | -1.739%
CN(C)c1cccc(C2CCCN2Cc2nnnn2C2CC2)c1 (centres undefined) | -17.55% | 14.45% | 25.99%
COC(=O)c1cc(CN2CCC(c3noc(C)n3)CC2)c(C)s1 | -23.03% | 13.47% | 10.97%
CN1CCCC(c2ccnc(C(=O)NCC3CC3)c2)C1 (centres undefined) | -5.181% | 14.15% | -75.49%
O=C(NCCCn1cccn1)C1CCC(=O)N(Cc2ccccc2F)C1 (centres undefined) | -5.224% | 14.05% | -3.83%
Cc1ocnc1CNC(=O)Nc1ccc(N2CCOC(C)C2)cc1 (centres undefined) | 7.248% | 14.71% | 104%